Structures were worked out from names or drawings and are uncertain.

The assay addresses CDK2 (Homo sapiens, UniProt P24941). Briefly: Phospho-RB measurement in OVCAR3 cells (HTRF phospho-RB S807/811). Conditions: read-out: pRb (uM), phosphorylation of RB protein at S807/811, HTRF, 24 h compound treatment, 0.3 to 10,000 nM. The protocol:
The ability of compounds of Formula (I) to inhibit CDK2 was determined in OVCAR3 cells. Phosphorylation of RB protein at S807/811 were measured using HTRF phospho-RB cellular kits (Cat #64RBS807PEG) from Cisbio.
On Day 1, OVCAR3 cells were seeded into 96-well tissue-culture treated plates at 20,000 cells/well in 200 μL and incubated overnight at 37° C. in CO2 atmosphere. On Day 2, the cells were treated with test compounds at concentrations from 0.3 to 10,000 nM using HP D300 digital dispenser. Twenty-four hours after compound treatment, cell culture media was removed by flicking the plate and tapping the plate against clean paper towel. Immediately 30 μL 1× lysis buffer was supplemented from the kit and the plate was incubated at room temperature on shaker for 30 min. After homogenization by pipetting up and down, 8 μL cell lysate from 96-well cell culture plate was transferred to 384-well small volume white detection plate. 2 μL premixed detection solution was added and the plate was covered with sealer. To prepare the detection solution, d2 conjugated-phospho-RB antibody and Eu-cryptate conjugated phosphor-RB antibody were diluted into detection buffer following manufacturer's instruction.
Detection plates were incubated for 4 h at room temperature and read on ClarioStar (BMG Labtech) in TR-FRET mode ([…]). The TR-FRET ratio (665 nM1/620 nM) was plotted against the compound concentration and normalized to DMSO controls. Half maximal inhibition concentration (IC50) values are calculated with a four-parameter logistic fit using GraphPad Prism (version 8; La Jolla, CA).
`CC1CN(C2CC(F)(F)C2)CC(C)N1c1nc(-c2cccc(NS(=O)(=O)c3c(F)cccc3F)c2F)c(-c2ccnc(NC3CC4(C3)CS(=O)(=O)C4)n2)s1` (stereo not drawn): the IC50 turned out to be 0.17 µM. With `O=S1(=O)CC2(CC(Nc3nccc(-c4sc(N5C6CCC5CC6)nc4-c4cccc(NS(=O)(=O)c5c(F)cccc5F)c4F)n3)C2)C1`, the IC50 was found to be 0.11 µM.

Consider `CN1CC2CCC(C1)N2c1nc(-c2cccc(NS(=O)(=O)c3c(F)cccc3C(F)(F)F)c2F)c(-c2ccnc(NC3C4CS(=O)(=O)CC43)n2)s1` (stereo not drawn), for which the IC50 is 0.04 µM.

The values above are taken from patent publication US12331026B2 (NiKang Therapeutics, Inc., priority 2022, dated 2025).
